According to patent US20060257938A1, “Method of screening for drugs that block ligand binding to a lipid binding protein” (priority 2005, published 2006):
Where a chain is given by its changes, count along the chain named.

B1: 17V, 72A (protein, listed as Rattus norvegicus)
chain: AFDGTWKVDRNENYEKVMEKMGINVVKRKLGAHDNLKLTITQEGNKFTVKESSNFRNIDVVFELGVDFAYSAADGTELTGTWTMEGNKLVGKFKRVDNGKELIAVREISGNELIQTYTYEGVEAKRIFKKE
modifications: PEPTIDE (1)...(131) wild-type rat intestinal fatty acid binding protein
B2: 17Q, 72A (protein, listed as Rattus norvegicus)
chain: B1 chain with V17Q
modifications: PEPTIDE (1)...(131) wild-type rat intestinal fatty acid binding protein
B3: 17R, 72A (protein, listed as Rattus norvegicus)
chain: B1 chain with V17R
modifications: PEPTIDE (1)...(131) wild-type rat intestinal fatty acid binding protein
B4: 17S, 72A (protein, listed as Rattus norvegicus)
chain: B1 chain with V17S
modifications: PEPTIDE (1)...(131) wild-type rat intestinal fatty acid binding protein
B5: 17T, 72A (protein, listed as Rattus norvegicus)
chain: B1 chain with V17T
modifications: PEPTIDE (1)...(131) wild-type rat intestinal fatty acid binding protein
B6: 17W, 72A (protein, listed as Rattus norvegicus)
chain: B1 chain with V17W
modifications: PEPTIDE (1)...(131) wild-type rat intestinal fatty acid binding protein
B7: 17Y, 72A (protein, listed as Rattus norvegicus)
chain: B1 chain with V17Y
modifications: PEPTIDE (1)...(131) wild-type rat intestinal fatty acid binding protein
B8: 18Q, 72A (protein, listed as Rattus norvegicus)
chain: B1 chain with V17F, M18Q
modifications: PEPTIDE (1)...(131) wild-type rat intestinal fatty acid binding protein
B9: 21W, 72A (protein, listed as Rattus norvegicus)
chain: B1 chain with V17F, M21W
modifications: PEPTIDE (1)...(131) wild-type rat intestinal fatty acid binding protein
B10: 23F2, 72A (protein, listed as Rattus norvegicus)
chain: B1 chain with V17F, I23F
modifications: PEPTIDE (1)...(131) wild-type rat intestinal fatty acid binding protein
B11: 23H1, 72A (protein, listed as Rattus norvegicus)
chain: B1 chain with V17F, I23H
modifications: PEPTIDE (1)...(131) wild-type rat intestinal fatty acid binding protein
B12: 23K1, 72A (protein, listed as Rattus norvegicus)
chain: B1 chain with V17F, I23K
modifications: PEPTIDE (1)...(131) wild-type rat intestinal fatty acid binding protein
B13: 23L3, 72A (protein, listed as Rattus norvegicus)
chain: B1 chain with V17F, I23L
modifications: PEPTIDE (1)...(131) wild-type rat intestinal fatty acid binding protein

Assay: Baseline fluorescence ratio Ro of probe in absence of analyte
Details: baseline fluorescence ratio of probe

B1 showed a Ro of 0.305.

Same assay, conditions: baseline fluorescence ratio of probe, no fatty acid

Point of comparison: B4, AvgOfRo 0.35. Against it:
- B2 — lower, 0.25
- B3 — higher, 0.36
- B5 — lower, 0.32
- B1 — lower, 0.30
- B6 — lower, 0.18
- B7 — higher, 0.65
- B8 — lower, 0.22
- B9 — higher, 0.60
- B10 — lower, 0.22
- B11 — lower, 0.20
- B12 — higher, 0.45
- B13 — lower, 0.23

Point of comparison: B7, Ro 0.647. Against it:
- B6 — lower, 0.175
